Source: PubChem BioAssay AID1259254 (NCATS, 2017)
Assay: 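Finding genes that stop cells copying their DNA twice in one cycle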 (primary screen). Cells: human HCT116 colorectal cancer cells. Reagent: single siRNA against human genes. Time to read-out: 3 days. Measured: 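Nuclei stained with Hoechst and imaged; cell-cycle phase assigned by DNA content; G2 share scaled per plate, non-targeting siRNA 0%, GMNN siRNA 100%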. Direction: G2 robust z-score: higher = more G2 cells, more excess DNA replication. Rule for the call: 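An siRNA counts as active if its G2 robust z-score lies at least 5 MADs above the screen median; here such calls match roughly 38% of GMNN control or more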.
Shown is one part, drawn at random, of about 59,000 reagents. About 1,550 of them (2.6%) count as active. 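G2 share is only a proxy for re-replication; each gene was hit by three separate siRNAs, and active genes were retested.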 Reagents against one gene are numbered here. Not all columns of the deposit are shown. No sequences are given here. Not given: the amount of reagent.

KPNA2 #1 showed G2 robust z-score -0.0867; inactive. Depletion of KPNA2 #2 came out at: G2 robust z-score 6.82; active. After knock-down of KPNA2 #3, the screen gave G2 robust z-score 0.41; inactive. For COASY #1 the deposit lists G2 robust z-score 0.0971; inactive. COASY #2 showed G2 robust z-score -0.594; inactive. For COASY #3 the deposit lists G2 robust z-score -0.363; inactive.

For ALDH16A1 #1, the values are G2 robust z-score 2.06; inactive. For ALDH16A1 #2, the entry reads G2 robust z-score 1.11; inactive. ALDH16A1 #3 showed G2 robust z-score -1.04; inactive. With knock-down of APBA3 #1, the screen gave G2 robust z-score -0.0754; inactive. APBA3 #2 gave G2 robust z-score 1.31; inactive. Against APBA3 #3 the deposit lists G2 robust z-score 0.0998; inactive.

2 neighbouring reagents already listed:
APBA3 #2 | G2 robust z-score = 1.31; Call = inactive
APBA3 #3 | G2 robust z-score = 0.0998; Call = inactive
